Literature values as cited in US11039992B2, “Stable redox compositions and methods of use” (Reoxcyn, LLC, priority 2017, dated 2021).
For at least one compound, name, drawing or mass did not settle the structure.

Details: pH-neutral aqueous solution (pH around 7.0) at room temperature

## [O]O [superoxide free radicals, superoxide]
  half-life: ~10's milliseconds
